Data published in paper PMC11151566.
Results are given in words; binding and its absence hold for the method and conditions named. In cells and extracts the contact can be indirect. Some results given as binding are weak or reduced against the parent protein; the word gives no strength.

Sequences of proteins named here, by UniProt entry; tags and fusion partners are left off.
UniProt Q92830: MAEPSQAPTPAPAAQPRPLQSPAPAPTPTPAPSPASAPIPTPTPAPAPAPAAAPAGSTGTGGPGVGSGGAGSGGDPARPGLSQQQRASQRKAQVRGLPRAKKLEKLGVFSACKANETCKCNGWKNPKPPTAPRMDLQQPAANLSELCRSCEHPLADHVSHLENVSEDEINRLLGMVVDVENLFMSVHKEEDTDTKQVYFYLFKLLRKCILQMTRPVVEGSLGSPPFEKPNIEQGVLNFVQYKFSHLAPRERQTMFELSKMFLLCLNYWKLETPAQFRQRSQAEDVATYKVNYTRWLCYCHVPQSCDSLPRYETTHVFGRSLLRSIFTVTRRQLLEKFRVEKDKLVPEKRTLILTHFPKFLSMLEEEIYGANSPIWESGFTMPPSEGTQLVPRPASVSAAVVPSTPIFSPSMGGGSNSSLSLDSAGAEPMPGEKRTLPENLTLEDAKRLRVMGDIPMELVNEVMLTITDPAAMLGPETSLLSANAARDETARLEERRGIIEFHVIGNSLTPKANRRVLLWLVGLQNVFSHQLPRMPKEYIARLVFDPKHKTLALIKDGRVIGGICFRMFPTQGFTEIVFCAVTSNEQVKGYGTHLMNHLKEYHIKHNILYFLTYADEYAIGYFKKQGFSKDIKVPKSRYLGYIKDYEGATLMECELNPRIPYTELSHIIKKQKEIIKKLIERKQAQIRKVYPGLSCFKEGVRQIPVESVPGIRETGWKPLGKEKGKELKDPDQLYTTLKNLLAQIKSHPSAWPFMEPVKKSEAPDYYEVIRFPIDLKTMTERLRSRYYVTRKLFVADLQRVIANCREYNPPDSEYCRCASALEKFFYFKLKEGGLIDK
UniProt P18669: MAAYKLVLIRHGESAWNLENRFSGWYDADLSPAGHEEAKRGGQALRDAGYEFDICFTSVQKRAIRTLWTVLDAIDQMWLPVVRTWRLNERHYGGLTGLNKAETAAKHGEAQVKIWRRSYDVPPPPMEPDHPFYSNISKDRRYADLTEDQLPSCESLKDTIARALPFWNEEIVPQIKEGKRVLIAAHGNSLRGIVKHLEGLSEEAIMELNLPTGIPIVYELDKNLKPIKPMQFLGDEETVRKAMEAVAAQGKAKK

Molecular target: lysine acetyltransferase (KAT) 2 A (human (endogenous in SNU182 and Huh7)) (UniProt Q92830)
Experiment: co-IP; SNU182 and Huh7 cells lysed in RIPA buffer with protease inhibitors; KAT2A, PGAM1 or IgG antibody (2 µg) overnight at 4 °C, protein A agarose beads, western blot

phosphoglycerate mutase 1 (PGAM1) (from UniProt P18669 1-254) (enzyme)
binding: binds
